# Measured values from patent US20040110707A1, “Method of treating neurological diseases” (priority 2001, published 2004).
# Assay: HPLC analysis of endogenous retinoids in parts of the adult mouse brain
structure (smiles),measurement,setting,value
CC1=C(/C=C/C(C)=C/C=C/C(C)=C/C(=O)O)C(C)(C)CCC1 [all-trans-retinoic acid],average level of all-trans-retinoic acid,"cerebellum, endogenous level, peak 3",531±194 pg/mg tissue
same,presence of all-trans-retinoic acid (peak 3),"cerebrum, HPLC",absence
